This test concerns the target HA-tagged WT PCM1 (human) (UniProt Q15154). Briefly: co-IP; lysate of HeLa cells expressing HA-tagged WT or 2AA PCM1; anti-HA antibody, Protein G agarose; Western blot for HSC70 and DNAJA2.

Chains of the proteins cited; added tags and fusions are not shown.
UniProt Q15154: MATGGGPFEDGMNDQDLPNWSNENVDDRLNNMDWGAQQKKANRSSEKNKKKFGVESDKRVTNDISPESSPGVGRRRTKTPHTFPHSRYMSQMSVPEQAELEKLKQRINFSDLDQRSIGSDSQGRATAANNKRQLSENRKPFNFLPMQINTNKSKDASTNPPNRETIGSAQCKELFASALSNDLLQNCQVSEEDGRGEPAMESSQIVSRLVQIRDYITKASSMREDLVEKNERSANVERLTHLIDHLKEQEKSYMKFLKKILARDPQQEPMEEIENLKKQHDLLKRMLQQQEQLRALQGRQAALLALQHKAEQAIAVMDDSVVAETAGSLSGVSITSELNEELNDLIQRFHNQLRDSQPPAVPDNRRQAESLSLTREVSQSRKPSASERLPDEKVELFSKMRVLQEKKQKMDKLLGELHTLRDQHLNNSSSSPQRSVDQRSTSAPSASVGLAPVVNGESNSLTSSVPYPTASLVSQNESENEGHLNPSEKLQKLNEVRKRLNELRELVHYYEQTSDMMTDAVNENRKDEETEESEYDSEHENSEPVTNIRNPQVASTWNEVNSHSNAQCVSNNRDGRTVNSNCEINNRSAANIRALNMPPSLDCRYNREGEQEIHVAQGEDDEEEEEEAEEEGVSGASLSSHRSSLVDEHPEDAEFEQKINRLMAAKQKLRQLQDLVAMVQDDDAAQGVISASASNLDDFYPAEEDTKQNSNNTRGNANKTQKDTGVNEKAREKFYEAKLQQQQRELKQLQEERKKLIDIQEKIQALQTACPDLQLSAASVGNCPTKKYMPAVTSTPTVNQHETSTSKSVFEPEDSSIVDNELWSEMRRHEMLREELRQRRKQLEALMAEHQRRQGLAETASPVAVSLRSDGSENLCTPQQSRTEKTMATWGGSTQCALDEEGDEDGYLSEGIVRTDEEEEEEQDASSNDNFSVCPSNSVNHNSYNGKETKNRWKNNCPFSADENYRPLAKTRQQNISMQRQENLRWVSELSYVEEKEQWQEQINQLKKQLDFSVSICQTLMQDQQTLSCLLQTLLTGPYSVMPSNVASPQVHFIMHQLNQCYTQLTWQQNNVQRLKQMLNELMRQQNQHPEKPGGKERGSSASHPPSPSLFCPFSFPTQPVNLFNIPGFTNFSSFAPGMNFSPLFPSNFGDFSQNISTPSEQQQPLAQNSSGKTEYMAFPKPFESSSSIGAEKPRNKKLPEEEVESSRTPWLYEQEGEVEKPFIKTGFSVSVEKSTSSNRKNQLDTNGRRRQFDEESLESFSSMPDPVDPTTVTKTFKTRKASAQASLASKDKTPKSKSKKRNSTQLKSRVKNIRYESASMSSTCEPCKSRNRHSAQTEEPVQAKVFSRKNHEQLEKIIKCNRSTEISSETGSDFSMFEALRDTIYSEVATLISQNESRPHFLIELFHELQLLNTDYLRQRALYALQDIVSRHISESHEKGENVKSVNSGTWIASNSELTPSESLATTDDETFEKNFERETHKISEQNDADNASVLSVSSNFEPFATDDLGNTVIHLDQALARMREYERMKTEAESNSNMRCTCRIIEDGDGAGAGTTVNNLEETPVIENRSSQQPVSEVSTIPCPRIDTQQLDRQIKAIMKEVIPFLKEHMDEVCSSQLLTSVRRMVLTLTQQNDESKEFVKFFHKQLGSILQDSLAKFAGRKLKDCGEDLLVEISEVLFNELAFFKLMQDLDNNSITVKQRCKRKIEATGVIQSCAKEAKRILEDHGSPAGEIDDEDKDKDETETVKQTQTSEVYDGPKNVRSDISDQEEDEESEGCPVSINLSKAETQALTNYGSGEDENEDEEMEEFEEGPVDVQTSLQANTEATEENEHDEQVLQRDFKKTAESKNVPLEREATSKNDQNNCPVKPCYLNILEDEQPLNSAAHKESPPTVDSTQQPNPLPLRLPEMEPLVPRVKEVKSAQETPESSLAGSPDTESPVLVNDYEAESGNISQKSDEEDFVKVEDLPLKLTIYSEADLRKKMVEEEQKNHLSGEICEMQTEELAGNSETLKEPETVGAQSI
UniProt O60884: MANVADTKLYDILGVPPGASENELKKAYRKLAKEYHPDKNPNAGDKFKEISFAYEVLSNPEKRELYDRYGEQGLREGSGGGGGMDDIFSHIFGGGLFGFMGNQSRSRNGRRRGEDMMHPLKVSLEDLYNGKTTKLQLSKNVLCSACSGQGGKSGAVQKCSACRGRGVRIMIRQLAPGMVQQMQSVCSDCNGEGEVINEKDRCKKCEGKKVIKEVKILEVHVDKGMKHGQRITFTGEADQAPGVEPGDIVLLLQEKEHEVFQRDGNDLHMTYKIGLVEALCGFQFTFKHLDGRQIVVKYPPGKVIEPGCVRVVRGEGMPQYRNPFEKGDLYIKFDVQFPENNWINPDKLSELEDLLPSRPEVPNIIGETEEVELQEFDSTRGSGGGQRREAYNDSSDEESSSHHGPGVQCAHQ

No constants are given. Whether binding was seen depends on the method and setting. Binding seen in cells or lysates may run through a third protein. Some entries that bind do so weakly or less than the wild type.

In the case of “DnaJ heat shock protein (HSP40) family member A2 (DNAJA2) (from UniProt O60884 1-412)”, the binding entry was “binds”.
